Structures can show the parent of a compound that is named as a salt.
Key:
T. cruzi amastigotes [1] = assay: T. cruzi image-based assay (48 hour, intracellular amastigotes in 3T3 host cells); format: cell-based; details: Trypanosoma cruzi
Description: Control compounds used to assess the sensitivity of the T. cruzi amastigote assay were NFX, BZ and POSA. […] The assay was performed as previously described. […] One wash was undertaken by using a Multidrop plate dispenser and two washes with a Bravo liquid handling device (Agilent Technologies, USA). Five microlitres of compound were added to plates and incubated for 48 hours. Cells were then fixed and stained with Hoechst (Life Technologies, USA) and HCS CellMaskTM Green (Life Technologies, USA) and image acquisition was performed an OperaTM High Content Screening System (PerkinElmer, USA) at 20 times magnification. […] The maximum activity achievable (Emax) of compounds was determined by taking (or as close to, if concentrations in the Emax were limited) the percentage activity at the mid concentration within the plateau of activity in the concentration response curve (see Supplemental Fig. 1, example NFX). To determine the IC50 values of active compounds, DMSO samples were manually cherry picked from primary screening plates and diluted out in a log series of concentrations. […] Compound IC50 values in the TcCYP51 in vitro assay were calculated in GraFit (Erithacus software) by non-linear slope analysis. […] The significance of % clearance of parasites at compound Emax concentrations was calculated in Prism 5.0, using an unpaired student's t-test.

HEK293 cells = assay: HEK293 assay (resazurin); format: cell-based, human; details: 120 hours, 28.2 µM
Description: […] […] Plates were incubated for 24 hours before the addition of compounds. […] The positive control was 32.5 μM puromycin and the negative control was 0.433% DMSO, slightly different to the T. cruzi assay due to the change in volume, whilst utilising the same stock control plate. […] To determine the IC50 values of active compounds, DMSO samples were manually cherry picked from primary screening plates and diluted out in a log series of concentrations. […] […] This was only undertaken for the amastigote assay. Dilutions were prepared with a multichannel pipette ([…], Thermo Fisher Scientific, USA) in 384-well polypropylene plates (Corning, NY, USA).

T. cruzi amastigotes [2] = assay: 24 hour image-based assay; format: cell-based; details: Trypanosoma cruzi, plateau/Emax concentrations, read-out: % activity at the Emax, 24 hours incubation
Description: Compounds were added to assay plates as described for the 48 hour assay, although incubation time was decreased to 24 hours. […] Two experimental replicates were performed.

T. cruzi amastigotes [3] = assay: 96 hour image-based assay; format: cell-based; details: Trypanosoma cruzi; difference 96 hours minus 48 hours; read-out: increase in activity at the Emax from 48 to 96 hours incubation
Description: The assay format was the same as the 48 hour assay, although plates were incubated for 96 hours. […] Two extra wash steps were included to remove as many extracellular parasites as possible to reduce impact on determination of intracellular parasites. Due to the level of egress in negative control wells, the number of infected cells was estimated as previously. Two experimental replicates were undertaken.

T. cruzi amastigotes [4] = assay: Wash-off assay to assess parasite survival following compound removal; format: cell-based; details: Trypanosoma cruzi, 48 hours incubation, additional 72 hours without compound, read-out: percentage activity at the Emax, wash-off assay
Description: The T. cruzi assay 48 hour assay was performed. Following, plates were washed 5 times with PBS (containing Mg^2+ and Ca^2+) on a Bravo liquid handler to remove compound pressure. Plates were incubated for an additional 72 hours and wells were washed 5 times before fluorescent labels were added. Plates were imaged on an Opera confocal-based high-content system with 7 fields per well acquired, at 20 times magnification. As considerable parasite egress was observed, only Emax concentrations were used for analysis. Four experimental replicates were undertaken.

T. cruzi epimastigotes = assay: 120 hour T. cruzi epimastigote assay (PrestoBlue); format: cell-based; details: Trypanosoma cruzi
Description: Additions were made with a Multidrop dispenser and compounds were added directly following parasite addition. Plates were incubated for 112 hours before the addition 10 µL of PrestoBlue® viability reagent (Thermo Fisher, USA). […] The positive control was NFX at a final concentration of 14.20 µM and 0.433% DMSO as a negative control.

## CN1CCC[C@@H]1CCO[C@](C)(c1ccccc1)c1ccc(Cl)cc1 [CF, Clemastine fumarate]
T. cruzi amastigotes [1]; 48 h, DMSO stocks (CF from solid sample), relative to nifurtimox control
  Emax: 96.8 ± 1.26%
T. cruzi amastigotes [1]; NIH3T3, 48 h, intracellular amastigotes in 3T3 cells, retested from DMSO stocks (CF from solid sample, temporal experiments)
  IC50: 0.57 ± 0.0396 µM
HEK293 cells
  % activity against HEK293 cells at highest screening dose: 99.5%
HEK293 cells; listed as Clemastine fumarate
  % activity against HEK293 cells at highest screening dose: 99.5% at 28.2 µM^1
T. cruzi amastigotes [2]
  Emax: 75.5%
T. cruzi amastigotes [3]
  Emax: 4.3%
T. cruzi amastigotes [4]
  Emax: 96.8%
T. cruzi epimastigotes
  IC50: 6.4 ± 0.0217 µM

Source: PMC5861127, “3-pyridyl inhibitors with novel activity against Trypanosoma cruzi reveal in vitro profiles can aid prediction of putative cytochrome P450 inhibition” (Scientific Reports, 2018)
